From the supplement of paper PMC10849652
The other results are listed elsewhere or left out.

The chains behind the UniProt entries cited, without tags or fusion partners. Where a name states a change or a piece, a line headed by the entry shows the natural chain unless it says otherwise.
UniProt Q8TCS8: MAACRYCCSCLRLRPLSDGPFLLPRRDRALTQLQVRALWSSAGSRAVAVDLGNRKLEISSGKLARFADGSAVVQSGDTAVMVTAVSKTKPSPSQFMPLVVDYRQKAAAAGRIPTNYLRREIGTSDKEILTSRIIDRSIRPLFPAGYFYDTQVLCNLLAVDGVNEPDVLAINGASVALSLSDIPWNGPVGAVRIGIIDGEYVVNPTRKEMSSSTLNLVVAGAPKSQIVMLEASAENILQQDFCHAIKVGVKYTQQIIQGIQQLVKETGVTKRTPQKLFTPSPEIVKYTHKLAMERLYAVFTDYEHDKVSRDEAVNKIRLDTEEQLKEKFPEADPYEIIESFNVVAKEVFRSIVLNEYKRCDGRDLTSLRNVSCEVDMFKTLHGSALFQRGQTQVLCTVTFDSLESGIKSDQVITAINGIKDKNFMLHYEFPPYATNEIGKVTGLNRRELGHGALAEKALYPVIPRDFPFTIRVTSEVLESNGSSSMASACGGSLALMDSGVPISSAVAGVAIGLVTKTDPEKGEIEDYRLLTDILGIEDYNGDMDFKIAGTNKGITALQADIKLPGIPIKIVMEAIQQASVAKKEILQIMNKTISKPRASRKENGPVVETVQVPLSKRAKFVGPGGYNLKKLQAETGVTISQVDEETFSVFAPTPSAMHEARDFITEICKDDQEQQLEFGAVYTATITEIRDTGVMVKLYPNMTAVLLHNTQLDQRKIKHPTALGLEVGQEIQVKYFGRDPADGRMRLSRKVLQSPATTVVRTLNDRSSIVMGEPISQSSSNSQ
UniProt P62937, whole entry, looked up: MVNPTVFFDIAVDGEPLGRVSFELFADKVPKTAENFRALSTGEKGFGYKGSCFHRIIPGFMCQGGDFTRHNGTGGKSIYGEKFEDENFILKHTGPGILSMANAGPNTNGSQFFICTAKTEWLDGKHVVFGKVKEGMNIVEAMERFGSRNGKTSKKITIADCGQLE
UniProt O15318: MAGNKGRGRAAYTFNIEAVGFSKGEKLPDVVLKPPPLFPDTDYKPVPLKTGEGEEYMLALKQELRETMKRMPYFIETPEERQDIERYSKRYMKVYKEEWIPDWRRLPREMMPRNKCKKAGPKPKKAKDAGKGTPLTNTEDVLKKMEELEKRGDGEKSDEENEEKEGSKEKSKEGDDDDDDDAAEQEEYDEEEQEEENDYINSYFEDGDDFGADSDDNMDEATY
UniProt Q9BX97: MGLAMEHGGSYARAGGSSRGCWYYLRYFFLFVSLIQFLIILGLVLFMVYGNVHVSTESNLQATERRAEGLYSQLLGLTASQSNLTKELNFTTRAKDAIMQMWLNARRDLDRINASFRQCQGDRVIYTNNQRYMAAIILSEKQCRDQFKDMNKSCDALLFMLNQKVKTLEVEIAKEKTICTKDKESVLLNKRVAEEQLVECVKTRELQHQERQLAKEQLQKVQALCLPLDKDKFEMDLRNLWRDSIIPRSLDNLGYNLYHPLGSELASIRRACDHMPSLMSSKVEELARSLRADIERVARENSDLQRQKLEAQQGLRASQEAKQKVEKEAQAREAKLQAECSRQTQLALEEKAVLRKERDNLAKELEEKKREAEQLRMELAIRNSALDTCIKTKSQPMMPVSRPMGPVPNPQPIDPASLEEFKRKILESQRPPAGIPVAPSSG
UniProt P00491: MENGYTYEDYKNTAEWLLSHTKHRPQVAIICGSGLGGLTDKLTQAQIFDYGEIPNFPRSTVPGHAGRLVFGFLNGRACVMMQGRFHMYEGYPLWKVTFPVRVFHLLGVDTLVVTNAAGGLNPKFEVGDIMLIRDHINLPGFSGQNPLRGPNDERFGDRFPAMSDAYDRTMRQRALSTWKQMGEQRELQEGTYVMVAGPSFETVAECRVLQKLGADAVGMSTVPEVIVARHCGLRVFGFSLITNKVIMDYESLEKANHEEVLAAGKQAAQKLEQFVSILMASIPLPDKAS
UniProt Q9UHN1: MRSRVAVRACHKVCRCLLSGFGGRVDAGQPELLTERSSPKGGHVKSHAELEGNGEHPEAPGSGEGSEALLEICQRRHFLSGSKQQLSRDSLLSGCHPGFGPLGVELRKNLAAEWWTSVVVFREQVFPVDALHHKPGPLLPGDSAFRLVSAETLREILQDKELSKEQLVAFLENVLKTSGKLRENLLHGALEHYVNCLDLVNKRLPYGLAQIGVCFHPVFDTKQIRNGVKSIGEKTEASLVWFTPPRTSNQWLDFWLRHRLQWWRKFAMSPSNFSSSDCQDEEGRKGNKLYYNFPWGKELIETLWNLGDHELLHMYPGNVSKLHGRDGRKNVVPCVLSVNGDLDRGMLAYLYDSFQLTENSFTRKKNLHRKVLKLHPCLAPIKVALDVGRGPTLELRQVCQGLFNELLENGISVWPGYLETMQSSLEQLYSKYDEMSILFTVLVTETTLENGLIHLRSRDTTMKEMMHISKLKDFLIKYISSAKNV
UniProt Q04941: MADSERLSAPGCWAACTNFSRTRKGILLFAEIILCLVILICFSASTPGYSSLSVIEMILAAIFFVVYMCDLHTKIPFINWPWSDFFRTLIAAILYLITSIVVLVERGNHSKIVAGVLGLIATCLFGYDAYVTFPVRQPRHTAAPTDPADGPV
UniProt Q9HAB8: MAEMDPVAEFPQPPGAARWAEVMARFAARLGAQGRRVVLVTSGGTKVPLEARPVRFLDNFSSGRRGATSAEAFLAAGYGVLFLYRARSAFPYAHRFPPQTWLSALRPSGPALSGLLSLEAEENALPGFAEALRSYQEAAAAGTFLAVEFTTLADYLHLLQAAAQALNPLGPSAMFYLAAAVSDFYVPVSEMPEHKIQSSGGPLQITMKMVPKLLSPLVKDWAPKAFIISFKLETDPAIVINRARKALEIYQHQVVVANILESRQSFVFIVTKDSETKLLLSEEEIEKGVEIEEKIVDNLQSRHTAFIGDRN
UniProt Q9UNP9: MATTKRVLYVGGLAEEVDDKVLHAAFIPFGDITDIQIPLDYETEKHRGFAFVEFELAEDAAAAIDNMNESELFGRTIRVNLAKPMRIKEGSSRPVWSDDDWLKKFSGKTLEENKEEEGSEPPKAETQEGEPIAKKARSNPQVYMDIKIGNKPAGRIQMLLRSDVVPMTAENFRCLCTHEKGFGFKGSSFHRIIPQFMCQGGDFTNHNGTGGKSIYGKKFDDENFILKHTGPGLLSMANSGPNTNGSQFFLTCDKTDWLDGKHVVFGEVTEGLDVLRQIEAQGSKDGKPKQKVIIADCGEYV
UniProt Q8WZA1: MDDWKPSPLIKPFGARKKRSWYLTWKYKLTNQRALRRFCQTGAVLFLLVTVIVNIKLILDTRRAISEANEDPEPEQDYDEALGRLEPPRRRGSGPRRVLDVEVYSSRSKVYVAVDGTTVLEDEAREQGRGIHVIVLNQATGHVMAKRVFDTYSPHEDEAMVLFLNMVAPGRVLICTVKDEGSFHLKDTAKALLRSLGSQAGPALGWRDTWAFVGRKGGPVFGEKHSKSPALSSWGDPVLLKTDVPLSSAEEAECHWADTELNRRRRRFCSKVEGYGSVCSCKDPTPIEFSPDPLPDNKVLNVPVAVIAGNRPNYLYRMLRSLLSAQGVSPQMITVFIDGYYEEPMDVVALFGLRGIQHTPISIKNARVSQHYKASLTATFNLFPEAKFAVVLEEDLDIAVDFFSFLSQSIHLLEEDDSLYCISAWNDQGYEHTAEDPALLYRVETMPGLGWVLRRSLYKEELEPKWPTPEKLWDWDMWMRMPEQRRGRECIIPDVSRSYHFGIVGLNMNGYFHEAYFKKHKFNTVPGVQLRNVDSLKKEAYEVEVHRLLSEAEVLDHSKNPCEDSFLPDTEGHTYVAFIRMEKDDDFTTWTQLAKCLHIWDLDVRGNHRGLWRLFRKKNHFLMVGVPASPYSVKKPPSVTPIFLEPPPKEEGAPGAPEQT
UniProt O75817: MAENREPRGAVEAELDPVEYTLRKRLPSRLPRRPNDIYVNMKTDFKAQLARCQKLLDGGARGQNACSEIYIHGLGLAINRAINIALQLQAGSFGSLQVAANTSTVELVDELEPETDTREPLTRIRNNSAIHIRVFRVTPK
UniProt Q9H8W4: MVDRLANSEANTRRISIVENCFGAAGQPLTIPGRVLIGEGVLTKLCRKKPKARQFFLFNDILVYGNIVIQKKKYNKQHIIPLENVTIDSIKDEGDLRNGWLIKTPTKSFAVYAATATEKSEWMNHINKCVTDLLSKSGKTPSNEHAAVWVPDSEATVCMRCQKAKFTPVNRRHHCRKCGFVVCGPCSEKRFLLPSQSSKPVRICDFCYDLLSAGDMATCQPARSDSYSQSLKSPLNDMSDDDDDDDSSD
UniProt Q9UIW2: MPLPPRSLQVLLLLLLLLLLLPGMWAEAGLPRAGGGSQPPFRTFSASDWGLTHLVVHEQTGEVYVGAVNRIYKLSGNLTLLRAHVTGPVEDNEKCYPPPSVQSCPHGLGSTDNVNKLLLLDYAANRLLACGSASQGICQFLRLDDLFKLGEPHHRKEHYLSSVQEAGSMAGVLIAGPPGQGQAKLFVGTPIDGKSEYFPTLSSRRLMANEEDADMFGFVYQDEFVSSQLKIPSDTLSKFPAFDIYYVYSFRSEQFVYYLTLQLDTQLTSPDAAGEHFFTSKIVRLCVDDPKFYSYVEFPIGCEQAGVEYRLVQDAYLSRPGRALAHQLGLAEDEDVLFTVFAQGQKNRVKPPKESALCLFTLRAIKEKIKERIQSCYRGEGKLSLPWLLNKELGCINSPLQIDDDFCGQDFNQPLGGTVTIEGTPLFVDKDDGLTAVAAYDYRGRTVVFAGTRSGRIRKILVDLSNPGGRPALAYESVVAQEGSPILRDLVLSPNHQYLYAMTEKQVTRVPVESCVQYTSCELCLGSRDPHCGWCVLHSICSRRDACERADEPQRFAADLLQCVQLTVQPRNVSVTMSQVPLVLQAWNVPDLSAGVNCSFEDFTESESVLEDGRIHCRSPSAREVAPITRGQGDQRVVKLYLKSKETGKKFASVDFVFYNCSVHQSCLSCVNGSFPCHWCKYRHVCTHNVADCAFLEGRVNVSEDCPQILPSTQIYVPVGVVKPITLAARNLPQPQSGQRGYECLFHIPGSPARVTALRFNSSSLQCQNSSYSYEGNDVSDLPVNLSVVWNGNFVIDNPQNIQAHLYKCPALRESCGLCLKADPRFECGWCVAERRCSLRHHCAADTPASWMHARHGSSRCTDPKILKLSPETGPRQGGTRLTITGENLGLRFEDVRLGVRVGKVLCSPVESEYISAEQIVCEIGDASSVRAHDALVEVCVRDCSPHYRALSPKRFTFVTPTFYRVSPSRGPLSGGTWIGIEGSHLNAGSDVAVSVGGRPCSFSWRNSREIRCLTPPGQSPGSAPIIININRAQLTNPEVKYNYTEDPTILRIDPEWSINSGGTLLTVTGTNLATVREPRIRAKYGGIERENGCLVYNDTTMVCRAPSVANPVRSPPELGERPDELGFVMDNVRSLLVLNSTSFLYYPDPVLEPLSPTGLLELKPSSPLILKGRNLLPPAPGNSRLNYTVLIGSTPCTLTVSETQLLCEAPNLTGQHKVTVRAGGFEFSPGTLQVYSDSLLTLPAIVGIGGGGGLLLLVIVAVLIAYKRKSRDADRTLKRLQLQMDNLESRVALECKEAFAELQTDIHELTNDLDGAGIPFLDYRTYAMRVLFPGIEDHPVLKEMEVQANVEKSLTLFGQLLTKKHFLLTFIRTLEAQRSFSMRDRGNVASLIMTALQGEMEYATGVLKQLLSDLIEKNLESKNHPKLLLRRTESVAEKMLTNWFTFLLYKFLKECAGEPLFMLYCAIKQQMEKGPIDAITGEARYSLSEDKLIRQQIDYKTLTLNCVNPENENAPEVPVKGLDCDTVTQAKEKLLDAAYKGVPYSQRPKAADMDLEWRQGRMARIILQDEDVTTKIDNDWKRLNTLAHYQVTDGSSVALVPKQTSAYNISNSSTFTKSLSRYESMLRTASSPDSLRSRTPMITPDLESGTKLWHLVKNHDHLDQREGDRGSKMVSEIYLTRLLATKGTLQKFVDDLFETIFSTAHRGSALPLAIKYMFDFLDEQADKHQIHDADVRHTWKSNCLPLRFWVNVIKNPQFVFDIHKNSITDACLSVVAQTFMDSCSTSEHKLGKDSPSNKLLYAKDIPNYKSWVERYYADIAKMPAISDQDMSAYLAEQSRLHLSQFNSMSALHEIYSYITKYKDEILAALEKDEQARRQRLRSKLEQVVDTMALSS
UniProt O43447: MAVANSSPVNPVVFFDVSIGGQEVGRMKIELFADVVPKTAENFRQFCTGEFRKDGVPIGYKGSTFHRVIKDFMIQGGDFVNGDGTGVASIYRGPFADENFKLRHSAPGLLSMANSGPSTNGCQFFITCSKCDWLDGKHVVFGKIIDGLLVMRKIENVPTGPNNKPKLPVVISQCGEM

Assays:
Assay in all cases: log2 fold change, soluble protein after heating vs DMSO (PISA); higher = thermal stabilisation; K562 cells, 10 uM, 30 min; active = over 0.2 and 3.5 SD of the protein, either way, in both replicates (recomputed)
[1] = compound: CC[C@@H]1C(=O)N(C)c2cnc(Nc3ccc(C(=O)NC4CCN(C)CC4)cc3OC)nc2N1C1CCCC1
In short: (§1)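 Thermal stability values are relative to control samples and come from duplicates. They are expressed as log2 fold changes. For measurement, K562 cells (2×10^6 cells/mL) received 10 μM compound for 30 min, and aliquots were heated for 3 min over 48°C-58°C, pooled, and extracted at 4°C in PBS with 0.5% NP-40. Soluble protein, the supernatant after 21,000xg for 90 min, was quantified by TMTpro 16plex LC-MS/MS with equalised channel sums.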

[2] = compound: CC[C@@H]1C(=O)N(C)c2cnc(Nc3ccc(C(=O)N[C@H]4CC[C@H](N5CCN(CC6CC6)CC5)CC4)cc3OC)nc2N1C(C)C [volasertib]
In short: as §1

[3] = compound: CC[C@H](C)N1C=C(C2=C(C=C(C=C21)C3=CN=C(C=C3)N4CCNCC4)C(=O)NCC5=C(C=C(NC5=O)C)C)C
In short: as §1

[4] = compound: CC[C@H](C)[C@@H](C(=O)N[C@@H]([C@@H](C)O)C(=O)N[C@@H](CC(C)C)C(=O)[C@]1(CO1)C)NC(=O)[C@H]([C@@H](C)CC)N(C)C(=O)C [epoxomicin]
In short: as §1

[5] = compound: CCn1c(C(=O)N(C2CC2)C2CC2)cc2c3c(ncn3C)c(Nc3cc(C)n(C)n3)nc21
In short: as §1

[6] = compound: CCn1cc(-c2ccnc3[nH]c(-c4cccc(CN(C)C)c4)cc23)c(-c2ccc(NC(=O)N(C)C)cc2)n1
In short: as §1

[7] = compound: CN(C)CC(=O)Nc1ccc2[nH]c(=O)c3ccccc3c2c1
In short: as §1

[8] = compound: CN(CCOC1=CC=C(C=C1)C[C@H]2C(=O)NC(=O)S2)C3=CC=CC=N3 (racemic) [rosiglitazone]
In short: as §1

[9] = compound: CN1C2=C(C3=C1C(=O)N(N=C3)CC4=CC(=CC=C4)N)SC(=C2)S(=O)C
In short: as §1

[10] = compound: CN1CCC(CNc2ccc3ncc(-c4cccc(OC(F)(F)F)c4)n3n2)CC1
In short: as §1

[11] = compound: CN1CCN(CCOc2cc(OC3CCOCC3)c3c(Nc4c(Cl)ccc5c4OCO5)ncnc3c2)CC1 [saracatinib]
In short: as §1

[12] = compound: CN1CCN(c2nc(C3=C(c4c[nH]c5ccccc45)C(=O)NC3=O)c3ccccc3n2)CC1 [sotrastaurin]
In short: as §1

[13] = compound: CN1CC[C@H](c2c(O)cc(O)c3c(=O)cc(-c4ccccc4Cl)oc23)[C@H](O)C1 [alvocidib]
In short: as §1

[14] = compound: CN1CCc2c(c3ccccc3n2Cc2ccc(C(=O)NO)cc2)C1 [Tubastatin A]
In short: as §1

[15] = compound: CNC(=O)C1=CC=CC=C1NC2=NC(=NC=C2Cl)NC3=C(C=C(C=C3)N4CCOCC4)OC
In short: as §1

[16] = compound: CNC(=O)c1ccc(Nc2ncc(C(F)(F)F)c(NCc3nccnc3N(C)S(C)(=O)=O)n2)cc1 [defactinib]
In short: as §1

[17] = compound: CNCc1ccc(-c2[nH]c3cc(F)cc4c3c2CCNC4=O)cc1 [rucaparib]
In short: as §1

[18] = compound: CNc1nc(-c2ccc3c(N)n[nH]c3c2)cc(N2C[C@@H](C(=O)NC3CCCCC3)CC[C@H]2C)n1
In short: as §1

[19] = compound: COC(=O)N[C@@H](C)CNc1nccc(-c2cn(C(C)C)nc2-c2cc(Cl)cc(NS(C)(=O)=O)c2F)n1 [encorafenib]
In short: as §1

[20] = compound: COC(=O)[C@H](CCSC)NC(=O)C1=C(C=C(C=C1)NC[C@H](CS)N)C2=CC=CC=C2
In short: as §1

Measured: log2 fold change

POFUT1 (UniProt Q9H488)
inactive: [1] 0.039 | [2] 0.038 | [3] 0 | [4] 0.005 | [5] 0.041 | [6] -0.118 | [7] -0.055 | [8] -0.013 | [9] 0.004 | [10] 0.068 | [11] 0.009 | [12] 0.027 | [13] 0.034 | [14] 0.132 | [15] 0.009 | [16] 0.04 | [17] -0.014 | [18] -0.042 | [19] -0.012 | [20] 0

PNPT1 (UniProt Q8TCS8)
inactive: [1] 0.006 | [2] -0.088 | [3] 0.076 | [4] 0.062 | [5] -0.083 | [6] -0.047 | [7] 0.072 | [8] 0.045 | [9] -0.024 | [10] 0.019 | [11] -0.049 | [12] -0.035 | [13] -0.123 | [14] 0.024 | [15] 0.012 | [16] -0.072 | [17] 0.044 | [18] 0.054 | [19] 0.04 | [20] -0.033

PPIA (UniProt P62937)
inactive: [1] -0.049 | [2] 0.016 | [3] 0.041 | [4] 0.063 | [5] 0.006 | [6] 0 | [7] -0.006 | [8] 0.027 | [9] -0.055 | [10] -0.001 | [11] 0.006 | [12] -0.01 | [13] -0.048 | [14] -0.019 | [15] 0.079 | [16] -0.046 | [17] 0.022 | [18] 0.004 | [19] -0.047 | [20] 0.023

POLR3G (UniProt O15318)
inactive: [1] 0.061 | [2] -0.032 | [3] 0.073 | [4] 0.023 | [5] 0.028 | [6] 0.016 | [7] 0.004 | [8] -0.005 | [9] 0.033 | [10] 0.016 | [11] -0.041 | [12] -0.012 | [13] -0.026 | [14] -0.07 | [15] -0.018 | [16] -0.062 | [17] -0.033 | [18] -0.052 | [19] 0.028 | [20] -0.029

PLVAP (UniProt Q9BX97)
inactive: [1] 0.164 | [2] -0.076 | [3] -0.059 | [4] 0.064 | [5] -0.05 | [6] -0.218 | [7] -0.096 | [8] -0.1 | [9] 0.141 | [10] 0.122 | [11] 0.009 | [12] 0.064 | [13] -0.095 | [14] -0.071 | [15] 0.102 | [16] 0.091 | [17] -0.111 | [18] -0.004 | [19] 0 | [20] -0.051

PNP (UniProt P00491)
inactive: [1] 0.034 | [2] 0.064 | [3] -0.024 | [4] -0.01 | [5] 0.041 | [6] -0.006 | [7] -0.018 | [8] -0.004 | [9] -0.053 | [10] 0 | [11] 0.054 | [12] 0.035 | [13] 0.001 | [14] -0.009 | [15] -0.034 | [16] 0 | [17] -0.032 | [18] -0.028 | [19] -0.023 | [20] 0.016

POLG2 (UniProt Q9UHN1)
inactive: [1] 0.091 | [2] -0.013 | [3] 0.014 | [4] -0.025 | [5] 0.003 | [6] -0.025 | [7] -0.059 | [8] -0.037 | [9] -0.043 | [10] 0.127 | [11] 0.007 | [12] 0.059 | [13] 0.028 | [14] 0.003 | [15] 0.026 | [16] 0 | [17] 0.034 | [18] -0.036 | [19] -0.027 | [20] 0.038

PLP2 (UniProt Q04941)
inactive: [1] 0.082 | [2] 0.308 | [3] -0.133 | [4] -0.101 | [5] 0.173 | [6] -0.02 | [7] -0.003 | [8] 0.172 | [9] -0.017 | [10] 0.075 | [11] 0.076 | [12] 0.056 | [13] 0.027 | [15] -0.274 | [16] 0 | [17] -0.038 | [18] -0.058 | [19] -0.124 | [20] -0.201

PPCS (UniProt Q9HAB8)
inactive: [1] 0.034 | [2] -0.019 | [3] -0.006 | [4] -0.033 | [5] 0.006 | [6] -0.057 | [7] 0 | [8] 0.056 | [9] -0.084 | [10] -0.053 | [11] 0.004 | [12] 0.043 | [13] 0.02 | [14] 0.007 | [15] -0.008 | [16] -0.037 | [17] -0.025 | [18] -0.009 | [19] -0.02 | [20] -0.042

PPIE (UniProt Q9UNP9)
inactive: [1] -0.028 | [2] -0.042 | [3] -0.039 | [4] 0.034 | [5] 0.007 | [6] 0.026 | [7] -0.046 | [8] -0.029 | [9] -0.013 | [10] -0.014 | [11] 0.059 | [12] 0.046 | [13] 0.048 | [14] -0.027 | [15] 0.003 | [16] 0.019 | [17] -0.05 | [18] -0.021 | [19] 0.062 | [20] 0.073

PLXNB2 (UniProt O15031)
inactive: [1] 0.002 | [2] -0.094 | [3] 0.047 | [4] -0.01 | [5] -0.047 | [6] -0.047 | [7] 0.008 | [8] 0.049 | [9] -0.052 | [10] 0.132 | [11] -0.012 | [12] 0.067 | [13] -0.053 | [14] -0.008 | [15] -0.022 | [16] -0.093 | [17] 0.021 | [18] 0 | [19] -0.001 | [20] -0.017

POMGNT1 isoform 2 (UniProt Q8WZA1)
inactive: [1] 0.19 | [2] 0.11 | [3] -0.147 | [4] -0.24 | [5] -0.028 | [6] 0.065 | [7] -0.079 | [8] 0.127 | [9] 0.004 | [10] -0.077 | [11] -0.058 | [12] 0.095 | [13] -0.046 | [14] -0.014 | [15] -0.007 | [16] 0.04 | [17] -0.146 | [18] -0.057 | [19] 0.05 | [20] -0.003

POP7 (UniProt O75817)
inactive: [1] -0.012 | [2] 0.113 | [3] 0.247 | [4] -0.062 | [5] -0.056 | [6] -0.006 | [7] 0.002 | [8] 0.051 | [9] 0.011 | [10] -0.055 | [11] -0.022 | [12] 0.085 | [13] -0.053 | [14] 0.074 | [15] -0.092 | [16] -0.016 | [17] 0.197 | [18] -0.016 | [19] 0.197 | [20] 0.027

PLEKHF2 (UniProt Q9H8W4)
inactive: [1] -0.108 | [2] -0.261 | [3] 0.053 | [4] 0.013 | [5] 0.007 | [6] -0.071 | [7] 0.223 | [8] 0.11 | [9] -0.012 | [10] -0.212 | [11] 0.024 | [12] -0.112 | [13] -0.117 | [14] 0.013 | [15] -0.011 | [16] 0.018 | [17] 0.058 | [18] 0.003 | [19] 0.12 | [20] 0

PLXNA1 (UniProt Q9UIW2)
inactive: [1] 0.019 | [2] 0.01 | [3] -0.023 | [4] 0.024 | [5] -0.003 | [6] -0.029 | [7] -0.016 | [8] 0.037 | [9] -0.059 | [10] 0.03 | [11] -0.013 | [12] 0.005 | [13] -0.045 | [14] 0.008 | [15] -0.047 | [16] -0.014 | [17] -0.002 | [18] 0.02 | [19] -0.027 | [20] 0.009

PPIH (UniProt O43447)
inactive: [1] -0.019 | [2] -0.018 | [3] 0.055 | [4] 0.045 | [5] -0.01 | [6] -0.008 | [7] 0.016 | [8] 0.042 | [9] -0.046 | [10] -0.041 | [11] -0.003 | [12] 0.013 | [13] -0.03 | [14] 0.012 | [15] -0.005 | [16] -0.039 | [17] -0.014 | [18] -0.006 | [19] 0.017 | [20] 0.042
